# Data as given in patent EP1928451B1, “METHODS FOR TREATING SUBSTANCE-RELATED DISORDERS” (SK Biopharmaceuticals Co., LTD, priority 2005, dated 2007).
# System: selectively-bred alcohol preferring (P) rats
# Assay: Chronic administration: two-bottle choice alcohol intake in alcohol preferring rats
# Assay type: in vivo
# Description: A compound of the present invention was tested in ethanol preferring rats, a model for acute and chronic drug addiction in humans using an adaptation of a published method (See, Rezvani, AH et al. Alcohol & Alcoholism, Vol. 25, No. 5, pp. 573-575, 1990, Rezvani AH, et al., Alcohol and Alcoholism (Oxford), 2000, 35(1), 76-83).
# An enantiomer of Formula (Ib) was orally administered in a dose range of from about 10 to about 90 mg/kg in test and control treatment groups of 10 rats per group over a period of 14 days. Test conditions reflected approaches for evaluating patterns of drinking (e.g., single or multiple events).
# Adult male selectively-bred alcohol preferring (P) rats were used. The selectively-bred alcohol-preferring (P) rats have been characterized and have been widely used to study the effects of different compounds on voluntary alcohol intake (Rezvani et al, 1990, 1991, 1992a, 1992b, 1999, 2000, 2002; 2003; Murphy et al, 1988; Overstreet et al., 1992, 1999; Li and McBride, 1995).
# Rats were housed individually in wire mesh cages under a constant room temperature of 22 +1 °C and 12:12 light-dark cycle (8:00-20:00, dark). Animal were fed Agway Prolab Rat/Mouse/ Hamster 3000 formula and water ad libitum.
# Establishment of baseline alcohol intake: Alcohol intake was determined using a standard two-bottle choice method (as described in Murphy et al. 1988; McBride et al. 1990; Rezvani et al. 1990, 1991, 1993, 1995, 1997, Rezvani and Grady, 1994).
# Animals were first given free access to water in a graduated Richter tube for 1 day. After the first day, the animals were given access to only a solution of 10% (v/v) ethanol for 3 consecutive days. During this period animals became accustomed to drinking from Richter tubes and to the taste and pharmacological effects of alcohol. Thereafter, they were given free access to both water and a solution of 10% alcohol for at least 3 consecutive weeks and throughout of the period of study. The rats had free access to food. Water and alcohol intake was recorded at 6 and 24 hour after the treatment, food intake was measured at 24 hour. Animal body weight was measured every day.
# The effect of chronic administration of a test compound on alcohol intake and tolerance to the anti-craving effects of the test compound was tested in naïve rats treated (via gavage tube) once a day either vehicle or test compound. A test compound dose of 45 mg/Kg was selected as an effective dose for chronic administration based on the results of the acute administration study phase. Themost effective dose was then used for the chronic adminstiration phase and administered for 14 consecutive days. Alcohol and water intake was recorded 6 and 24 h after each treatment administration and food intake was recorded at 24 hr.
# The results were presented as means ±SEM (Standard Error of the Means). Alcohol intake (g/kg) was calculated by multiplying the volume of alcohol consumed in mL by 10% and 0.7893 (a factor representing ethanol density)/body weight in kg. Alcohol preference, expressed as percentage, was calculated as follows (volume of alcohol consumed (mL)/total fluid intake (mL)) x 100 (as described in Rezvani and Grady,. 1994; Rezvani et al., 1997). Statistical differences between treatment and control groups were determined by using ANOVA and Turkey Student's t test for multiple comparisons.
smiles,measurement,setting,value
NC(=O)OC[C@@H](O)c1ccccc1Cl [Drug],Total Fluid Intake,"Day 1, 45 mg/Kg once a day via gavage",82 mL/kg
same,Total Fluid Intake,"Day 2, 45 mg/Kg once a day via gavage",76 mL/kg
same,Total Fluid Intake,"Day 3, 45 mg/Kg once a day via gavage",77 mL/kg
same,Total Fluid Intake,"Day 4, 45 mg/Kg once a day via gavage",81 mL/kg
same,Total Fluid Intake,"Day 5, 45 mg/Kg once a day via gavage",83 mL/kg
same,Total Fluid Intake,"Day 6, 45 mg/Kg once a day via gavage",75 mL/kg
same,Total Fluid Intake,"Day 7, 45 mg/Kg once a day via gavage",71 mL/kg
same,Total Fluid Intake,"Day 8, 45 mg/Kg once a day via gavage",80 mL/kg
same,Total Fluid Intake,"Day 9, 45 mg/Kg once a day via gavage",67 mL/kg
same,Total Fluid Intake,"Day 10, 45 mg/Kg once a day via gavage",83 mL/kg
same,Total Fluid Intake,"Day 11, 45 mg/Kg once a day via gavage",67 mL/kg
same,Total Fluid Intake,"Day 12, 45 mg/Kg once a day via gavage",60 mL/kg
same,Total Fluid Intake,"Day 13, 45 mg/Kg once a day via gavage",78 mL/kg
same,Total Fluid Intake,"Day 14, 45 mg/Kg once a day via gavage",83 mL/kg
